Data reported in PubChem BioAssay AID222 (DTP/NCI, 2004).
The list is a part of this screen's results and no random one: it gathers tests that were run many times, whatever their T/C, doses with no T/C, and many T/C values between a quarter and a half above the control. Further doses and runs are listed elsewhere. T/C gives the treated animals as a percentage of the vehicle group. Some entries give survivors of the animals treated and no T/C: the source files T/C as zero there, which appears to mark a toxic dose or a test without result, not a measured value. Some doses without a T/C left all or most animals alive at the check, yet need not have been tolerated: survival well below the control is almost never listed, so the zero probably covers shortened survival too. Survivors were counted at the toxicity check, usually on the fifth day, unless a day is given; later deaths do not show. Schedules are NCI's codes, taken here to give the interval after Q, in days (D) or hours (H), and the number of doses after X. Some entries hold several experiments; the results are listed from low to high. Some schedule codes hold Z or #, which are not explained here. For survival time, the PubChem record calls one and a half times the control and up active, and a quarter to a half above the control has no call in these data; cut-offs in other NCI protocols can differ. Marks such as (2×) give the number of equal values in this list. Some T/C values carry the count of animals alive at the toxicity check (mostly the fifth day); where none is given, no animal had died by that day.

Tested on: C57BL/6 mice, intracerebral ependymoblastoma, median survival T/C
Experiment: NCI In Vivo Anticancer Drug Screen. Data for tumor model Ependymoblastoma (intracerebral) in C57BL/6 mice
Settings: T/C endpoint: median survival time, higher T/C = longer survival
Protocol: The antitumor activity of compounds was measured in mice bearing transplantable tumors. Survival or tumor size were measured and the results are expressed as the measurement made in the treated group (T) divided by the measurement made in the vehicle treated control group (C). The tumor model used in this assay is Ependymoblastoma (intracerebral) in C57BL/6 mice

[1] = dose: 16.0 mg/kg/injection, schedule: Q01DX005 (ip), vehicle: saline
[2] = dose: 160.0 mg/kg/injection, schedule: Q01DX001 (ip), vehicle: Klucel (hydroxypropylcellulose) (HPC)
[3] = dose: 320.0 mg/kg/injection, schedule: Q01DX001 (ip), vehicle: Klucel (hydroxypropylcellulose) (HPC)

SMILES: CCCCCCCCCCCCCC(=O)OC12CC(C)C3(O)C(C=C(CO)C(O)C4(O)C(=O)C(C)=CC43)C1C2(C)C (stereo not drawn)
- survivor count (dose: 1.0 mg/kg/injection, schedule: Q01DX005 (ip), vehicle: acetone): 5 of 10

SMILES: COc1ccc2c(c1OC(C)=O)-c1cc(O)cc3c1C(C2)N(C(=O)CN(CCCl)CCCl)CC3 (stereo not drawn)
- survivor count (dose: 100.0 mg/kg/injection, schedule: Q04DX003 (ip), vehicle: saline): 10 of 10

SMILES: OC(C1CO1)C(O)C1CO1 (stereo not drawn)
- T/C (dose: 0.5 mg/kg/injection, schedule: Q01DX005 (ip), vehicle: saline, evaluated on day 50): 116 % of control
- T/C (dose: 0.5 mg/kg/injection, schedule: Q01DX005 (ip), vehicle: saline, evaluated on day 60): 105, 106, 111, 113, 120 % of control
- T/C (dose: 0.5 mg/kg/injection, schedule: Q01DX005 (ip), vehicle: saline, evaluated on day 90): 102 % of control [4 of 10 alive]
- survivor count (dose: 0.5 mg/kg/injection, schedule: Q01DX005 (ip), vehicle: saline): 10 of 10
- T/C (dose: 1.0 mg/kg/injection, schedule: Q01DX005 (ip), vehicle: saline, evaluated on day 30): 103 and 106 % of control
- T/C (dose: 1.0 mg/kg/injection, schedule: Q01DX005 (ip), vehicle: saline, evaluated on day 50): 127 % of control [7 of 8 alive]
- T/C (dose: 1.0 mg/kg/injection, schedule: Q01DX005 (ip), vehicle: saline, evaluated on day 60): 103, 112, 116, 118, 121, 128, 301 % of control
- T/C (dose: 1.0 mg/kg/injection, schedule: Q01DX005 (ip), vehicle: saline, evaluated on day 90): 112 % of control [7 of 10 alive]
- T/C (dose: 1.0 mg/kg/injection, schedule: Q03HX008 (ip), vehicle: saline): 133 % of control
- T/C (dose: 2.0 mg/kg/injection, schedule: Q01DX005 (ip), vehicle: saline, evaluated on day 30): 127 and 128 % of control
- T/C (dose: 2.0 mg/kg/injection, schedule: Q01DX005 (ip), vehicle: saline, evaluated on day 50): 106 % of control
- T/C (dose: 2.0 mg/kg/injection, schedule: Q01DX005 (ip), vehicle: saline, evaluated on day 60): 112 (2×), 120, 121, 132, 139, 301 % of control
- T/C (dose: 2.0 mg/kg/injection, schedule: Q01DX005 (ip), vehicle: saline, evaluated on day 90): 112 % of control [6 of 10 alive]
- T/C (dose: 2.0 mg/kg/injection, schedule: Q03HX008 (ip), vehicle: saline): 133 % of control [9 of 10 alive]
- T/C (dose: 3.0 mg/kg/injection, schedule: Q01DX005 (ip), vehicle: saline): 129 % of control
- T/C (dose: 4.0 mg/kg/injection, schedule: Q01DX001 (ip), vehicle: saline): 127 % of control [8 of 10 alive]
- survivor count (dose: 4.0 mg/kg/injection, schedule: Q01DX005 (ip), vehicle: clinical formulation): 10 of 10
- T/C (dose: 4.0 mg/kg/injection, schedule: Q01DX005 (ip), vehicle: saline, evaluated on day 60): 128, 165, 166 % of control
- T/C (dose: 4.0 mg/kg/injection, schedule: Q01DX005 (ip), vehicle: saline, evaluated on day 90): 115 % of control [7 of 10 alive]
- survivor count (dose: 4.0 mg/kg/injection, schedule: Q01DX005 (ip), vehicle: saline): 7 of 8, 9 of 10, 10 of 10, 9 of 9
- survivor count (dose: 4.0 mg/kg/injection, schedule: Q01DX005 (oral), vehicle: clinical formulation): 8 of 10
- T/C (dose: 4.0 mg/kg/injection, schedule: Q01DX005 (oral), vehicle: saline): 132 % of control
- T/C (dose: 4.0 mg/kg/injection, schedule: Q## X006 (ip), vehicle: clinical formulation): 141 % of control
- survivor count (dose: 5.0 mg/kg/injection, schedule: Q01DX005 (ip), vehicle: saline): 4 of 7
- T/C (dose: 8.0 mg/kg/injection, schedule: Q01DX001 (ip), vehicle: clinical formulation): 136 % of control
- survivor count (dose: 8.0 mg/kg/injection, schedule: Q01DX005 (ip), vehicle: clinical formulation): 8 of 10
- T/C (dose: 8.0 mg/kg/injection, schedule: Q01DX005 (ip), vehicle: saline, evaluated on day 60): 157 % of control
- T/C (dose: 8.0 mg/kg/injection, schedule: Q01DX005 (ip), vehicle: saline, evaluated on day 90): 97 % of control [3 of 10 alive]
- survivor count (dose: 8.0 mg/kg/injection, schedule: Q01DX005 (ip), vehicle: saline): 4 of 10, 6 of 10, 9 of 10, 8 of 8
- survivor count (dose: 8.0 mg/kg/injection, schedule: Q01DX005 (oral), vehicle: clinical formulation): 10 of 10
- survivor count (dose: 8.0 mg/kg/injection, schedule: Q01DX005 (oral), vehicle: saline): 10 of 10
- survivor count (dose: 8.0 mg/kg/injection, schedule: Q## X006 (ip), vehicle: clinical formulation): 6 of 10
- survivor count (dose: 10.0 mg/kg/injection, schedule: Q01DX005 (oral), vehicle: saline): 7 of 7
- survivor count (dose: 16.0 mg/kg/injection, schedule: Q01DX001 (ip), vehicle: clinical formulation): 3 of 10 and 5 of 10
- survivor count (dose: 16.0 mg/kg/injection, schedule: Q01DX001 (oral), vehicle: clinical formulation): 3 of 10
- T/C [1]: 98 % of control [3 of 10 alive]
- survivor count [1]: 4 of 10, 4 of 8, 6 of 10, 8 of 10, 10 of 10
- survivor count (dose: 16.0 mg/kg/injection, schedule: Q01DX005 (oral), vehicle: clinical formulation): 7 of 10
- survivor count (dose: 16.0 mg/kg/injection, schedule: Q01DX005 (oral), vehicle: saline): 10 of 10
- survivor count (dose: 32.0 mg/kg/injection, schedule: Q01DX001 (ip), vehicle: clinical formulation): 3 of 10
- survivor count (dose: 32.0 mg/kg/injection, schedule: Q01DX001 (oral), vehicle: clinical formulation): 5 of 10
- survivor count (dose: 32.0 mg/kg/injection, schedule: Q01DX005 (oral), vehicle: clinical formulation): 5 of 10
- survivor count (dose: 64.0 mg/kg/injection, schedule: Q01DX001 (oral), vehicle: clinical formulation): 6 of 10
- survivor count (dose: 128.0 mg/kg/injection, schedule: Q01DX001 (oral), vehicle: clinical formulation): 3 of 10 and 4 of 10

SMILES: S=c1nc[nH]c2nc[nH]c12
- survivor count (dose: 40.0 mg/kg/injection, schedule: Q01DX005 (ip), vehicle: Klucel (hydroxypropylcellulose) (HPC)): 10 of 10
- survivor count (dose: 80.0 mg/kg/injection, schedule: Q01DX005 (ip), vehicle: Klucel (hydroxypropylcellulose) (HPC)): 10 of 10
- survivor count (dose: 160.0 mg/kg/injection, schedule: Q01DX005 (ip), vehicle: Klucel (hydroxypropylcellulose) (HPC)): 9 of 10 and 10 of 10

SMILES: CCCN(C)C(=O)N(CCCl)N=O
- T/C (dose: 10.0 mg/kg/injection, schedule: Q01DX001 (ip), vehicle: Klucel (hydroxypropylcellulose) (HPC)): 93 [3 of 10 alive], 95 [4 of 10 alive], 99 [3 of 10 alive], 109, 121, 122, 123, 134, 152 % of control
- T/C (dose: 20.0 mg/kg/injection, schedule: Q01DX001 (ip), vehicle: Klucel (hydroxypropylcellulose) (HPC)): 99 [4 of 10 alive], 105 [7 of 10 alive], 109, 112 [9 of 10 alive], 116 [9 of 10 alive], 120 [6 of 10 alive], 138, 139 [9 of 10 alive], 147 % of control
- T/C (dose: 40.0 mg/kg/injection, schedule: Q01DX001 (ip), vehicle: Klucel (hydroxypropylcellulose) (HPC)): 94 [4 of 10 alive], 101 [4 of 10 alive], 109 [6 of 10 alive], 112 [9 of 10 alive], 126, 137, 139 [9 of 10 alive], 165, 195 % of control
- T/C (dose: 80.0 mg/kg/injection, schedule: Q01DX001 (ip), vehicle: Klucel (hydroxypropylcellulose) (HPC)): 96 [3 of 10 alive], 104, 106 [6 of 10 alive], 117 [9 of 10 alive], 130 [9 of 10 alive], 143 [8 of 10 alive], 146 [9 of 10 alive], 160, 198 % of control
- T/C [2]: 86 [8 of 10 alive], 99 [6 of 10 alive], 103 [5 of 10 alive], 149, 179 % of control
- survivor count [2]: 2 of 10, 4 of 10, 7 of 10
- survivor count (dose: 250.0 mg/kg/injection, schedule: Q01DX001 (ip), vehicle: other): 6 of 10
- T/C [3]: 87 [1 of 10 alive] and 94 % of control [3 of 10 alive]
- survivor count [3]: 0 of 10, 5 of 10, 8 of 10
